Data as given in PubChem BioAssay AID504764 (Drosophila RNAi Screening Center, 2011).
Screen: 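Genome-wide screen for regulators of Notch-driven gene expression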 (primary screen). Cells: Drosophila Kc167 cells. Reagents: long dsRNA against Drosophila genes. Time to read-out: about 5 days (4 days dsRNA, then 24 h after transfection). Challenge: transfection of constitutively active membrane-tethered Notch lacking the extracellular domain, read 24 h later. Read-out: 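Light from a Notch-responsive E(spl)m3 luciferase reporter under active Notch, with control-promoter and no-Notch reporter wells to normalise; raw counts from paired wells a and b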. Direction: induced reporter light, run 1, well a and induced reporter light, run 1, well b: higher = more light from the Notch target reporter with active Notch; control promoter light, run 1, well a and control promoter light, run 1, well b: higher = more light from the viral control promoter (cell number, transfection, viability); uninduced reporter light, run 1, well a: higher = more light from the Notch target reporter without active Notch. Active means: 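Hit if the duplicate-averaged log2 ratio of induced to control-promoter light gives a plate-wise z beyond ±2, or induced to uninduced beyond ±1.8; weak-control or discordant-duplicate wells dropped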. Calls: active = modifier hit (raised or lowered Notch signal); inactive = not a hit.
The deposit covers about 22,000 reagents; shown is a random part of those that have a named target and a result. Over the whole deposit, 403 (1.9%) were called active. 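Unnormalised raw counts per well; ratio z-scores behind the hit calls and whether each hit raises or lowers signal are not deposited.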 Entries without a mark were called inactive. No sequences are given here. The record does not give: the amount of reagent.

Gene | DRSC id | induced reporter light, run 1, well a | induced reporter light, run 1, well b | control promoter light, run 1, well a | control promoter light, run 1, well b | uninduced reporter light, run 1, well a
CG2116 (GeneID 31735) | DRSC18206 | 2.24e5 | 2.81e5 | 3.56e5 | 3.46e5 | 13610
Set2 (GeneID 32301) | DRSC19765 | 55160 | 56700 | 43125 | 48750 | 3520
mesh (GeneID 43688) | DRSC14472 | 1.76e5 | 1.59e5 | 2.73e5 | 2.52e5 | 12800
mesh (GeneID 43688) | DRSC15098 | 1.31e5 | 1.59e5 | 2.06e5 | 1.71e5 | 12160
mesh (GeneID 43688) | DRSC15099 | 1.02e5 | 1.05e5 | 1.51e5 | 1.47e5 | 9520
CG1774 (GeneID 43722) | DRSC15258 | 1.59e5 | 1.76e5 | 2.59e5 | 2.58e5 | 10835
Arl2 (GeneID 40993) | DRSC14117 | 1.30e5 | 1.37e5 | 1.44e5 | 1.08e5 | 5505
alphaTub85E (GeneID 41183) | DRSC16899 | 48175 | 56615 | 55310 | 48355 | 4425
CG34428 (GeneID 5740867) | DRSC10119 | 1.18e5 | 1.50e5 | 1.79e5 | 1.52e5 | 6935
Usp39 (GeneID 32881) | DRSC20032 | 1.04e5 | 92230 | 76630 | 45865 | 6925
CG5412 (GeneID 42434) | DRSC15796 | 69900 (active) | 57115 | 48635 | 50855 | 4855
Mgat4b (GeneID 39609) | DRSC10256 | 2.14e5 | 1.73e5 | 3.27e5 | 2.61e5 | 10765
hth (GeneID 41273) | DRSC16967 | 60000 | 60480 | 49120 | 41340 | 4130
klu (GeneID 39228) | DRSC11357 | 1.53e5 | 1.40e5 | 1.61e5 | 1.31e5 | 8170
Hsc70-3 (GeneID 32133) | DRSC20253 | 63035 | 50505 | 80970 | 88460 | 5200
CG17219 (GeneID 33515) | DRSC00486 | 1.96e5 | 1.85e5 | 2.79e5 | 2.46e5 | 12390
Archease (GeneID 42551) | DRSC16025 | 1.99e5 | 1.93e5 | 1.83e5 | 1.99e5 | 12155
CG8547 (GeneID 36586) | DRSC07211 | 1.18e5 | 97650 | 98610 | 1.03e5 | 8155
CG15336 (GeneID 31742) | DRSC18019 | 1.39e5 | 1.49e5 | 2.02e5 | 1.98e5 | 10545
ND-ACP (GeneID 38154) | DRSC08724 | 67085 | 81130 | 1.17e5 | 1.47e5 | 5135
raptor (GeneID 31543) | DRSC18359 | 68745 | 79695 | 1.43e5 | 1.16e5 | 7815

In a second layout: 4 of the entries above
Gene	DRSC id	induced reporter light, run 1, well a	induced reporter light, run 1, well b	control promoter light, run 1, well a	control promoter light, run 1, well b	uninduced reporter light, run 1, well a
Archease (GeneID 42551)	DRSC16025	1.99e5	1.93e5	1.83e5	1.99e5	12155
CG8547 (GeneID 36586)	DRSC07211	1.18e5	97650	98610	1.03e5	8155
CG15336 (GeneID 31742)	DRSC18019	1.39e5	1.49e5	2.02e5	1.98e5	10545
ND-ACP (GeneID 38154)	DRSC08724	67085	81130	1.17e5	1.47e5	5135

The listing continues:
Gene | DRSC id | induced reporter light, run 1, well a | induced reporter light, run 1, well b | control promoter light, run 1, well a | control promoter light, run 1, well b | uninduced reporter light, run 1, well a
CG14913 (GeneID 34532) | DRSC02397 | 1.46e5 | 1.44e5 | 90315 | 1.03e5 | 19590
CG14803 (GeneID 31142) | DRSC18556 | 1.42e5 | 1.57e5 | 2.36e5 | 2.30e5 | 9280
jp (GeneID 34274) | DRSC02213 | 2.29e5 | 2.54e5 | 1.89e5 | 1.74e5 | 16665
jp (GeneID 34274) | DRSC02744 | 66585 | 57595 | 32360 | 34045 | 10092
CG1888 (GeneID 35979) | DRSC06797 | 2.03e5 | 2.41e5 | 2.91e5 | 2.72e5 | 17975
Cyp12a5 (GeneID 42293) | DRSC16621 | 1.94e5 | 1.58e5 | 1.72e5 | 1.81e5 | 13438
Alp1 (GeneID 40372) | DRSC11781 | 1.04e5 | 1.16e5 | 61995 | 78610 | 9550
Cyp313a1 (GeneID 41759) | DRSC16624 | 2.41e5 | 2.45e5 | 1.90e5 | 2.11e5 | 17135
GstD3 (GeneID 48336) | DRSC15571 | 71240 | 73275 | 65190 | 51135 | 4225
CG13887 (GeneID 38096) | DRSC08357 | 72670 | 64610 | 1.27e5 | 1.52e5 | 7205
Nep1 (GeneID 31547) | DRSC18388 | 2.20e5 | 2.19e5 | 2.44e5 | 2.36e5 | 16990
Nep1 (GeneID 31547) | DRSC18389 | 16432 | 16235 | 28095 | 34590 | 5745
SmydA-1 (GeneID 36581) | DRSC07200 | 1.83e5 | 1.19e5 | 1.47e5 | 1.31e5 | 11080
CG12929 (GeneID 35987) | DRSC06242 | 1.58e5 | 2.11e5 | 2.19e5 | 1.86e5 | 16135
CG7126 (GeneID 42202) | DRSC16201 | 1.60e5 | 1.85e5 | 2.35e5 | 2.20e5 | 12578
Pld3 (GeneID 35384) | DRSC03167 | 1.67e5 | 2.30e5 | 1.75e5 | 2.23e5 | 15050
disco (GeneID 32579) | DRSC20323 | 1.41e5 | 98375 | 1.39e5 | 1.43e5 | 14620
Mco1 (GeneID 34258) | DRSC02720 | 1.19e5 | 1.33e5 | 69775 | 82610 | 15245
CG15199 (GeneID 32051) | DRSC19646 | 1.23e5 | 1.34e5 | 2.66e5 | 2.21e5 | 8200
Rh7 (GeneID 39389) | DRSC10529 | 1.30e5 | 1.30e5 | 69535 | 35645 | 10940
Lztr1 (GeneID 31037) | DRSC18176 | 93805 | 1.09e5 | 1.96e5 | 2.05e5 | 9250
Lztr1 (GeneID 31037) | DRSC18647 | 1.13e5 | 1.09e5 | 1.89e5 | 2.60e5 | 8135
CG34167 (GeneID 5740831) | DRSC01525 | 66500 | 63130 | 88525 | 79060 | 6980
CG17560 (GeneID 42022) | DRSC15242 | 3.03e5 | 3.41e5 | 2.66e5 | 2.85e5 | 23938
CG14304 (GeneID 42232) | DRSC14783 | 59575 | 49115 | 40940 | 45485 | 4715
sei (GeneID 37843) | DRSC04713 | 1.76e5 | 1.90e5 | 1.63e5 | 1.82e5 | 14970
Cyp9f2 (GeneID 41520) | DRSC16635 | 1.47e5 | 1.37e5 | 76865 | 81250 | 9670
CG14036 (GeneID 33735) | DRSC02361 | 79490 | 80520 | 66210 | 72580 | 4775
Dhx15 (GeneID 35654) | DRSC06036 | 1.43e5 (active) | 1.75e5 | 1.22e5 | 1.28e5 | 13415
